From doi:10.1101/559146
These are yes or no findings as the source states them, for the method shown. Binding seen in cells or lysates may run through a third protein. Binding calls can cover weak binding; strength is not graded here. Sequences can lack the tags named with a protein.

By UniProt entry, the sequences of proteins in these tests, tags left out. Where a name states a change or a piece, a line headed by the entry shows the natural chain unless it says otherwise.
UniProt P25443: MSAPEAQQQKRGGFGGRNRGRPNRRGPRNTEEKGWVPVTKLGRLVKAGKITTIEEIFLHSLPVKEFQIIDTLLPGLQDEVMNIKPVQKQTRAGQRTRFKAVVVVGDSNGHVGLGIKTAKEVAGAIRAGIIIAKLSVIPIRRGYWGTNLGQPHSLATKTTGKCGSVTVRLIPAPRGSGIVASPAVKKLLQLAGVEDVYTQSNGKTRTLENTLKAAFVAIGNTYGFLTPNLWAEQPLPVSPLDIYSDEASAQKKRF

Molecular target: T1, Tsr4-TEV-13myc (S. cerevisiae) (UniProt P25040)
T1 sequence: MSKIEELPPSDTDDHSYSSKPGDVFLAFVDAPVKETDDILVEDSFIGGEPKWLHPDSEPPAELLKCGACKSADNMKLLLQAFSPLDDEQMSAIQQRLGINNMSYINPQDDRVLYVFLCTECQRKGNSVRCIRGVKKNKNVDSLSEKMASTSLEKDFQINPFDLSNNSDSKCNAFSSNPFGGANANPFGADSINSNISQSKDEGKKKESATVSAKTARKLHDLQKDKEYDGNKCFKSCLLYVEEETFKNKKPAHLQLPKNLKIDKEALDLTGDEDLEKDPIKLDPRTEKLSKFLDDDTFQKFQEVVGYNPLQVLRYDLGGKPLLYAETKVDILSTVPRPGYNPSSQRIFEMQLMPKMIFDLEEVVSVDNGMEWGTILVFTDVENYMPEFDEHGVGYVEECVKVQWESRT
Assay: co-IP

“Rps2-GFP fragment lacking the N-terminus (from UniProt P25443) (domain or fragment)” was tested, and the binding was “binds”.
